PubChem BioAssay AID1259254, NCATS – 2017
The deposit covers about 59,000 reagents; this is a random part of them. About 1,550 of them (2.6%) were called active. 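G2 share is only a proxy for re-replication; each gene was hit by three separate siRNAs, and active genes were retested.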 The numbers tell different reagents against one gene apart. Further read-outs or replicates are left out here. The record does not give: the amount of reagent.

Assay: 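Finding genes that stop cells copying their DNA twice in one cycle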 (primary screen)
Cell system: human HCT116 colorectal cancer cells
Reagents: single siRNA against human genes
Timing: 3 days
Detection: 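Imaged Hoechst DNA stain sorts each cell into a cycle phase by DNA amount; per plate, G2 fraction set to 0% for non-targeting and 100% for GMNN siRNA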
Reading the numbers: G2 robust z-score: higher = more G2 cells, more excess DNA replication
Hit rule: 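Active siRNAs have a G2 robust z of 5 or more median absolute deviations over the median, which in these data means about 38% or higher of GMNN control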

G2 robust z-score, by gene and reagent
GGA2: #1 -0.591 inactive; #2 -0.449 inactive; #3 0.29 inactive
DHX9: #1 -0.105 inactive; #2 0.481 inactive; #3 2.48 inactive
RHOF: #1 -0.534 inactive; #2 0.604 inactive; #3 1.44 inactive
RBMX: #1 1.19 inactive; #2 1.26 inactive; #3 -0.282 inactive
TMEM86B: #1 -1.22 inactive; #2 -0.367 inactive; #3 0.744 inactive
MYOZ1: #1 1.14 inactive; #2 0.00898 inactive; #3 -0.38 inactive
SNAPC2: #1 -0.438 inactive; #2 -0.774 inactive; #3 -0.866 inactive
TMEM183A: #1 -0.887 inactive; #2 1.86 inactive; #3 0.307 inactive
ASPN: #1 7.26 active; #2 -0.237 inactive; #3 -1.06 inactive
DHX8: #1 -1.28 inactive; #2 1.27 inactive; #3 -0.181 inactive
PCDHB6: #1 4.31 inactive; #2 3 inactive; #3 2.45 inactive
ZNF526: #1 0.0734 inactive; #2 0.0949 inactive; #3 -0.0559 inactive
OR5P3: #1 -0.949 inactive; #2 3.31 inactive; #3 -1.04 inactive
CDC20: #1 -0.724 inactive; #2 9.03 active; #3 3.56 inactive
PC: #1 0.127 inactive; #2 1.18 inactive; #3 -0.849 inactive
CCDC93: #1 -1.42 inactive; #2 0.547 inactive; #3 -0.69 inactive
RNF166: #1 1.15 inactive; #2 3.51 inactive; #3 -0.495 inactive
KCNJ5: #1 -0.582 inactive; #2 -0.808 inactive; #3 1.24 inactive
TRMT2B: #1 0.22 inactive; #2 -0.912 inactive; #3 -0.64 inactive
FLG: #1 0.19 inactive; #2 -1.01 inactive; #3 0.222 inactive
IFT25: #1 0.253 inactive; #2 -0.699 inactive; #3 -0.94 inactive
ABCD3: #1 1.57 inactive; #2 -0.431 inactive; #3 -1.15 inactive
KDM2A: #1 0.273 inactive; #2 0.132 inactive; #3 1.74 inactive
CHMP2B: #1 -0.208 inactive; #2 -0.0352 inactive; #3 -0.0611 inactive
TRAK1: #1 -0.996 inactive; #2 -0.225 inactive; #3 0.592 inactive
ASB9P1: #1 -0.0639 inactive; #2 0.666 inactive; #3 -0.262 inactive
CHCHD2: #1 -0.0518 inactive; #2 0.476 inactive; #3 -0.756 inactive
ZNF44: #1 3.24 inactive; #2 -0.292 inactive; #3 0.00583 inactive
PPIL1: #1 0.0206 inactive; #2 1.88 inactive; #3 0.136 inactive
